Assay results published in article PMC10951710.

Sequences of proteins named here, by UniProt entry; tags and fusion partners are left off. A change or cut given only in a name is not applied to a line headed by its entry.
UniProt F4J2I0: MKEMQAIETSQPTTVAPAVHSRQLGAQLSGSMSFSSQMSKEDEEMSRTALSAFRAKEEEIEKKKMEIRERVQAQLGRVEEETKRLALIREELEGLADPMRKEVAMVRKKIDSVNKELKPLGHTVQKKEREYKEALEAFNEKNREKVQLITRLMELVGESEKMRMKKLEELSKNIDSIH
UniProt Q9FIL6: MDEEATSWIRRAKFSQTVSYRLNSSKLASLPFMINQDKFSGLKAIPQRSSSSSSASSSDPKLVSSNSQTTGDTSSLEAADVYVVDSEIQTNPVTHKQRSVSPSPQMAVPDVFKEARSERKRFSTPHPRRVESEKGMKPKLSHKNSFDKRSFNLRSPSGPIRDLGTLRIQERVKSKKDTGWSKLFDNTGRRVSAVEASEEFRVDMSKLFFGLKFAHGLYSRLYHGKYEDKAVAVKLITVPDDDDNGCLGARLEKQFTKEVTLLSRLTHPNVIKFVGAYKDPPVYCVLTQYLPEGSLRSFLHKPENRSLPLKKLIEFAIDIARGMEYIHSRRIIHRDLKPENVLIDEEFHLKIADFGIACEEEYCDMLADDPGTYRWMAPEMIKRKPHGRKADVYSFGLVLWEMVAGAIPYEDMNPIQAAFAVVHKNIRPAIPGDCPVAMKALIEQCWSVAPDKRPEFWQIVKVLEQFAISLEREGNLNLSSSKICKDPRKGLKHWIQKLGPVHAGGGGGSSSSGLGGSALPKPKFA
UniProt F4K6U2: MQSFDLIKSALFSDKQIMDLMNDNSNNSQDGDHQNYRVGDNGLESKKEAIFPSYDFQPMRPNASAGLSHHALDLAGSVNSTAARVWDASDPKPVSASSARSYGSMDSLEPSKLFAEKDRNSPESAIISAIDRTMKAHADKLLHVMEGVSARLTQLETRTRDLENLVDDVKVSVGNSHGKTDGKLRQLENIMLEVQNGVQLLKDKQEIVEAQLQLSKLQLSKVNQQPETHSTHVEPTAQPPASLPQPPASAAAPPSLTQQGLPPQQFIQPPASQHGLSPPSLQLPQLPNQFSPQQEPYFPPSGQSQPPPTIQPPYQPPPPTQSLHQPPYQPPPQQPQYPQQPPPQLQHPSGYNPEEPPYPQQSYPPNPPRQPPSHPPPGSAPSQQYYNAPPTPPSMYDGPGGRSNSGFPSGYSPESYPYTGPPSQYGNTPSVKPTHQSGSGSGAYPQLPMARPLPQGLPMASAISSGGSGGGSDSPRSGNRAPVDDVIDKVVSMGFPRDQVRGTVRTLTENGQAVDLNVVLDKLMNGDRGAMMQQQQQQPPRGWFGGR
UniProt F4JLJ3: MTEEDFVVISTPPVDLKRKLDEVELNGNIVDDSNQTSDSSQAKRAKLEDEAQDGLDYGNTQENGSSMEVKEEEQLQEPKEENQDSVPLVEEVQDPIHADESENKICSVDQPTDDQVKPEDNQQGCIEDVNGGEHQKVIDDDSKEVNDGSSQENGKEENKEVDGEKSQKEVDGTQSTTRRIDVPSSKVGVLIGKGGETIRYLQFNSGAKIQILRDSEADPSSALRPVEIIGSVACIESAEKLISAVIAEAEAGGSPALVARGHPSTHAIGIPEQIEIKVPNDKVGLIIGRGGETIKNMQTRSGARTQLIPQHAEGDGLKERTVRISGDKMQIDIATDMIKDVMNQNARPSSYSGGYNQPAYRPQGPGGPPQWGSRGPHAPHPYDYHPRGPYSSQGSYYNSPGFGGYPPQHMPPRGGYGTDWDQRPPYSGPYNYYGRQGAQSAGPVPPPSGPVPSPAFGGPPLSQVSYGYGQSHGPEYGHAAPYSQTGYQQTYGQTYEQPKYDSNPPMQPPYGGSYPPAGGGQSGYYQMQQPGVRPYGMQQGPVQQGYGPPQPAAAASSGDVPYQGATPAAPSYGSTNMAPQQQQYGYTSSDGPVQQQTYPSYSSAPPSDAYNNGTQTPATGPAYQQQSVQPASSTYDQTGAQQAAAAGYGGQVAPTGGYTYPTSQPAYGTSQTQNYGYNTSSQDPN
UniProt F4HQ88: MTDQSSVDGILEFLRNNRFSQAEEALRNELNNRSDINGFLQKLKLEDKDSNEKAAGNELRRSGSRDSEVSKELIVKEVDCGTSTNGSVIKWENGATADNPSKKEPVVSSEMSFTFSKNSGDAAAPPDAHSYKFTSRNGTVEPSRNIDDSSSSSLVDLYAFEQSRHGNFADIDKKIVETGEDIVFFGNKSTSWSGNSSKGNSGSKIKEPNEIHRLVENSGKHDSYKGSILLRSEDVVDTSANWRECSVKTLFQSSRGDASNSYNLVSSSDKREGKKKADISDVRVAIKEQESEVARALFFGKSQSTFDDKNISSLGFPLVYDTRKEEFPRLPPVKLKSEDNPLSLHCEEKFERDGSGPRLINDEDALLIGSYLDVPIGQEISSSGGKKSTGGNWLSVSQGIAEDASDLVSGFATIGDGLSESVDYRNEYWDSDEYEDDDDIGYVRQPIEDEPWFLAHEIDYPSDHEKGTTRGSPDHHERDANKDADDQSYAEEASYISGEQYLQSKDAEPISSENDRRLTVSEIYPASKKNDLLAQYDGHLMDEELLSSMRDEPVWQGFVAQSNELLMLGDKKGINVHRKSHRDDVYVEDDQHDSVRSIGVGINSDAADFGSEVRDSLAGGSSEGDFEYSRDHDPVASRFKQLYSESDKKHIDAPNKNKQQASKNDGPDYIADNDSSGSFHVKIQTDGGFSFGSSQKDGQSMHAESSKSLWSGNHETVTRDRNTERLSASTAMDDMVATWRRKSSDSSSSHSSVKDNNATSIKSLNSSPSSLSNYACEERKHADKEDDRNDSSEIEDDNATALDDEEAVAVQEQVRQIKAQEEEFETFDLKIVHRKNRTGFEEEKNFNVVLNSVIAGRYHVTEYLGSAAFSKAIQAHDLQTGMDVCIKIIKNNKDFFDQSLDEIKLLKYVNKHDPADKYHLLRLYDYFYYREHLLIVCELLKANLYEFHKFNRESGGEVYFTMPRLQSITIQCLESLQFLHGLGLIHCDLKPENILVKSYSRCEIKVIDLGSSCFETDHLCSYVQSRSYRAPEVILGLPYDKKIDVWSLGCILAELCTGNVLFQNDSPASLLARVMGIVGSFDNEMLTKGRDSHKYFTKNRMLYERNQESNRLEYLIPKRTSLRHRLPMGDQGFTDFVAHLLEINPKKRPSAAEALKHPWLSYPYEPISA
UniProt P52032: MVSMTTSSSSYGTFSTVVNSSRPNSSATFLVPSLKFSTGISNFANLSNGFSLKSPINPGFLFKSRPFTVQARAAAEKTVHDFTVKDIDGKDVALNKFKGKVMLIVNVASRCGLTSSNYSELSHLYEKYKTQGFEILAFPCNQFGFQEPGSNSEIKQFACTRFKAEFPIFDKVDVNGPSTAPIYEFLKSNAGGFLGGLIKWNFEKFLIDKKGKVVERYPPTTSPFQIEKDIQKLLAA
UniProt Q9SMP0: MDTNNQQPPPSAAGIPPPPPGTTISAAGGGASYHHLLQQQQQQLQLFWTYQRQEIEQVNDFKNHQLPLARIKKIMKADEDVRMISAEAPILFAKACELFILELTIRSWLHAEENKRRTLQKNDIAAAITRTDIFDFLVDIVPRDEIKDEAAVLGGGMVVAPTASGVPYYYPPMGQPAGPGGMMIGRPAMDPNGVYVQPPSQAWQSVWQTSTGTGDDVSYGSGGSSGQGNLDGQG
UniProt P45432: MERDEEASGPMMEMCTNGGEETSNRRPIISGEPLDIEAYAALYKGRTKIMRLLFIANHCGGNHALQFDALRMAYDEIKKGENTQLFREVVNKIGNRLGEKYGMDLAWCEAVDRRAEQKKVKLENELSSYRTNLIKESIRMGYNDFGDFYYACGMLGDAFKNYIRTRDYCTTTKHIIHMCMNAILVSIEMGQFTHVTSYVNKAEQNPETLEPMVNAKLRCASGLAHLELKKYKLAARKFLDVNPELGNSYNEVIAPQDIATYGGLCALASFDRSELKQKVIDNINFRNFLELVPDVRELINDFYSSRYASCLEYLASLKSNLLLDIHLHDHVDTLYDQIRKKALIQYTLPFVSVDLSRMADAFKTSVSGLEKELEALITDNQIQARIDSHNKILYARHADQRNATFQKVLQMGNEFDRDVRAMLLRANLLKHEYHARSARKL
UniProt Q9FT52: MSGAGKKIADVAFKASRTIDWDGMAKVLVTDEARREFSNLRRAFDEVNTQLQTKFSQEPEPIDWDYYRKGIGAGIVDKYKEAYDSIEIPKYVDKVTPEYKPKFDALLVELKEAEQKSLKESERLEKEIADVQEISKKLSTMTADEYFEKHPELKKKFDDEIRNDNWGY
UniProt Q9SD86: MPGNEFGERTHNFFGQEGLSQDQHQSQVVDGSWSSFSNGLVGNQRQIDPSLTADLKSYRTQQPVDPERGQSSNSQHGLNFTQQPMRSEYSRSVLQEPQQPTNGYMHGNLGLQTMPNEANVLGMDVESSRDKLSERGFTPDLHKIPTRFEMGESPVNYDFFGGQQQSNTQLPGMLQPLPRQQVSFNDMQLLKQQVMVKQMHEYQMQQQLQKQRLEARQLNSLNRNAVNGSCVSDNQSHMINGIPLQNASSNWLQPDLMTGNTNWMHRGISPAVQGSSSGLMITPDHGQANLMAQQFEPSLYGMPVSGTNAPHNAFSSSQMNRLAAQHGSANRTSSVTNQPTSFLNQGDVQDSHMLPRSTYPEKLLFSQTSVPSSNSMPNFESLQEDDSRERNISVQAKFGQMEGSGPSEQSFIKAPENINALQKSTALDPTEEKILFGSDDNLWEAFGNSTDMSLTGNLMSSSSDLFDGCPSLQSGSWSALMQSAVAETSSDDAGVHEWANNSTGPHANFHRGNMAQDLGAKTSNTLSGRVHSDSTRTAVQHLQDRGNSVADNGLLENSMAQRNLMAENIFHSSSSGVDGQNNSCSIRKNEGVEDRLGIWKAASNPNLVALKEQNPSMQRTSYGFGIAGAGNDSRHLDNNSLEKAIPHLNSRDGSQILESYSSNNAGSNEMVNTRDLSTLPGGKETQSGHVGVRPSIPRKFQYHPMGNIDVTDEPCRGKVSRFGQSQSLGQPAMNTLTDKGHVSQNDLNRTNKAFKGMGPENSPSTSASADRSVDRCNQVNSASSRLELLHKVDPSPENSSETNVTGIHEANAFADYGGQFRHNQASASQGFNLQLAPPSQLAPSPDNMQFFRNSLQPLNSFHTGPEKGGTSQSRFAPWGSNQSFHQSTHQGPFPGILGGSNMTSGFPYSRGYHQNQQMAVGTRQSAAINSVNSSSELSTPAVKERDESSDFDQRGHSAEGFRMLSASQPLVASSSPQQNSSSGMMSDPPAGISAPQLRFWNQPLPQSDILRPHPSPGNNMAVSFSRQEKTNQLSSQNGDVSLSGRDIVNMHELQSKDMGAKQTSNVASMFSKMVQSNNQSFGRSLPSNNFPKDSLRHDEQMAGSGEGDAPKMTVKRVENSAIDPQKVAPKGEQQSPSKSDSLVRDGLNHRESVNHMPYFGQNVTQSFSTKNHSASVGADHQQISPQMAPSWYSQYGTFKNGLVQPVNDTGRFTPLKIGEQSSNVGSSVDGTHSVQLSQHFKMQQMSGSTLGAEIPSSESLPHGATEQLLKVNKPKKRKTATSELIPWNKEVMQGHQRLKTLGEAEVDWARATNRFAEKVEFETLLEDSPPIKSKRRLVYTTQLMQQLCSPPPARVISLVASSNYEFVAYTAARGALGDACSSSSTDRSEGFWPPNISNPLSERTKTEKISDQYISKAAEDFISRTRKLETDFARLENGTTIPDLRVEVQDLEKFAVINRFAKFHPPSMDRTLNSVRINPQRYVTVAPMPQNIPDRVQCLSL
UniProt Q9ZPZ4: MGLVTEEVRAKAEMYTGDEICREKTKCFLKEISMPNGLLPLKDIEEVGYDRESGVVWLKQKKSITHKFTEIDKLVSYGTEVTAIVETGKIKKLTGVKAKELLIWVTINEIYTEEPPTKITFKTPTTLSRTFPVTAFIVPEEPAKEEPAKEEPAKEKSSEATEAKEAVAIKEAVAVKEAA
UniProt P50883: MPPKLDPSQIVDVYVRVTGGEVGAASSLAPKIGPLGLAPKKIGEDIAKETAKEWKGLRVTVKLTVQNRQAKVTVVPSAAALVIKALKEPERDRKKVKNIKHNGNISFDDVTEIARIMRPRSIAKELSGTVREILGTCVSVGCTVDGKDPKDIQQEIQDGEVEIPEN
UniProt O82631: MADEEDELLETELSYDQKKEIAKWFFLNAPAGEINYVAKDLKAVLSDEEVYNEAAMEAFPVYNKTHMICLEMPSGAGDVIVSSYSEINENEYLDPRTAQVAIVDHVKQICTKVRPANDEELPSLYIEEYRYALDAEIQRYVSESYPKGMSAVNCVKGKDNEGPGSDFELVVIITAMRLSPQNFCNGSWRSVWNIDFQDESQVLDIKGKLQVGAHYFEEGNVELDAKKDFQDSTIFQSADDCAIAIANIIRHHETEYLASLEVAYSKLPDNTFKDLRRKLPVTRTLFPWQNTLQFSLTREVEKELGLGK

T1: MKK2-TurboID-Hisx8 fusion protein (mitogen-activated protein kinase kinase 2 fused to TurboID) (Arabidopsis thaliana) (UniProt Q9S7U9)
T1 sequence: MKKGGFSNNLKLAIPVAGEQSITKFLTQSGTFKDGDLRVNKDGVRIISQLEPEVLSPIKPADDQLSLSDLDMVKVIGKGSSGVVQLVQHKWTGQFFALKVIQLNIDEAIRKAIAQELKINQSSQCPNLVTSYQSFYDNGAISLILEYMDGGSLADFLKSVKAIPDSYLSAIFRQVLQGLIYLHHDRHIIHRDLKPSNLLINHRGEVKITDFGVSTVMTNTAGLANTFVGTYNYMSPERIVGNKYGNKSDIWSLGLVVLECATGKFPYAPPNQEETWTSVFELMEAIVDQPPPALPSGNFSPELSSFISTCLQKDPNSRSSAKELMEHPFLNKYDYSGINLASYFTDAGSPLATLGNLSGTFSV


Biological target: T1, MKK2-TurboID-Hisx8 fusion protein (mitogen-activated protein kinase kinase 2 fused to TurboID) (Arabidopsis thaliana)
Experiment: proximity labelling; in planta TurboID labelling in MKK1-ID or MKK2-ID transgenic Arabidopsis against TurboID-only (ID) plants; 150 uM biotin and 5 uM estradiol in the medium, 5 min wind of 4 m/sec; denaturing extraction, streptavidin enrichment of biotinylproteins and biotinylpeptides, LC-MS/MS, iBAQ quantitation; hits at log2-ratio >= 1.58 and BH-FDR <= 0.05

Row | Molecule | binding
1 | A microtubules-associated protein required for bacterial immunity (ACIP1) (from UniProt F4J2I0) | binds
2 | SEUSS transcriptional co-regulator (SEU) (from UniProt Q8W234 1-877) | binds
3 | COMPLEX 1 LYR-like protein (EMB2786) | binds
4 | RabGAP/TBC domain-containing protein | binds
5 | A group C Raf-like protein kinase (RAF36); Wind-Related Kinase 1 (WIRK1) (from UniProt Q9FIL6) (enzyme) | binds
6 | Basic salivary proline-rich-like protein (DUF1421) (FLOE2) (from UniProt F4K6U2) | binds
7 | Ankyrin repeat protein | binds
8 | KH domain-containing protein (ATKH18) (from UniProt F4JLJ3) | binds
9 | Ribosomal RNA small subunit methyltransferase G | binds
10 | Plant-specific dual-specificity tyrosine phosphorylation-regulated kinase 2A (DYRKP-2A) (from UniProt F4HQ88) (enzyme) | binds
11 | UDP-Glycosyltransferase superfamily protein (enzyme, UniProt Q9LSY5 1-495) MKFELVFIPYPGIGHLRSTVEMAKLLVDRETRLSISVIILPFISEGEVGASDYIAALSASSNNRLRYEVISAVDQPTIEMTTIEIHMKNQEPKVRSTVAKLLEDYSSKPDSPKIAGFVLDMFCTSMVDVANEFGFPSYMFYTSSAGILSVTYHVQMLCDENKYDVSENDYADSEAVLNFPSLSRPYPVKCLPHALAANMWLPVFVNQARKFREMKGILVNTVAELEPYVLKFLSSSDTPPVYPVGPLLHLENQRDDSKDEKRLEIIRWLDQQPPSSVVFLCFGSMGGFGEEQVREIAIALERSGHRFLWSLRRASPNIFKELPGEFTNLEEVLPEGFFDRTKDIGKVIGWAPQVAVLANPAIGGFVTHCGWNSTLESLWFGVPTAAWPLYAEQKFNAFLMVEELGLAVEIRKYWRGEHLAGLPTATVTAEEIEKAIMCLMEQDSDVRKRVKDMSEKCHVALMDGGSSRTALQKFIEEVAKNIVSLDKEFEHVALK | binds
12 | BOBBER1, HSP20-like chaperones superfamily protein (BOB1) (protein, UniProt Q9LV09 1-304) MAIISEVEEESSSSRPMIFPFRATLSSANPLGFLEKVFDFLGEQSDFLKKPSAEDEIVVAVRAAKEKLKKAEKKKAEKESVKPVEKKAEKEIVKLVEKKVEKESVKPTIAASSAEPIEVEKPKEEEEKKESGPIVPNKGNGTDLENYSWIQNLQEVTVNIPVPTGTKARTVVCEIKKNRLKVGLKGQDPIVDGELYRSVKPDDCYWNIEDQKVISILLTKSDQMEWWKCCVKGEPEIDTQKVEPETSKLGDLDPETRSTVEKMMFDQRQKQMGLPTSEELQKQEILKKFMSEHPEMDFSNAKFN | binds
13 | AtSGT1a and AtSGT1b are functionally redundant in the resistance to pathogenes (ATSGT1B) (protein, UniProt Q9SUT5 1-358) MAKELAEKAKEAFLDDDFDVAVDLYSKAIDLDPNCAAFFADRAQANIKIDNFTEAVVDANKAIELEPTLAKAYLRKGTACMKLEEYSTAKAALEKGASVAPNEPKFKKMIDECDLRIAEEEKDLVQPMPPSLPSSSTTPLATEADAPPVPIPAAPAKPMFRHEFYQKPEEAVVTIFAKKVPKENVTVEFGEQILSVVIDVAGEEAYHLQPRLFGKIIPEKCRFEVLSTKVEIRLAKAEIITWASLEYGKGQSVLPKPNVSSALSQRPVYPSSKPAKDWDKLEAEVKKQEKDEKLDGDAAMNKFFSDIYSSADEDMRRAMNKSFAESNGTVLSTNWKEVGTKKVESTPPDGMELKKWEY | binds
14 | Mitogen activated protein kinase kinase 1 (MKK1) (enzyme, UniProt Q94A06 1-354) MNRGSLCPNPICLPPLEQSISKFLTQSGTFKDGDLRVNKDGIQTVSLSEPGAPPPIEPLDNQLSLADLEVIKVIGKGSSGNVQLVKHKLTQQFFALKVIQLNTEESTCRAISQELRINLSSQCPYLVSCYQSFYHNGLVSIILEFMDGGSLADLLKKVGKVPENMLSAICKRVLRGLCYIHHERRIIHRDLKPSNLLINHRGEVKITDFGVSKILTSTSSLANSFVGTYPYMSPERISGSLYSNKSDIWSLGLVLLECATGKFPYTPPEHKKGWSSVYELVDAIVENPPPCAPSNLFSPEFCSFISQCVQKDPRDRKSAKELLEHKFVKMFEDSDTNLSAYFTDAGSLIPPLAN | binds
15 | SC35-like splicing factor 30A (AT-SCL30A) (protein, UniProt Q9LHP2 1-262) MRGRSYTPSPPRGYGRRGRSPSPRGRFGGSRDSDLPTSLLVRNLRHDCRQEDLRRPFEQFGPVKDIYLPRDYYTGDPRGFGFIQFMDPADAAEAKHQMDGYLLLGRELTVVFAEENRKKPTEMRTRDRGGRSNRFQDRRRSPPRYSRSPPPRRGRRSRSRSRGYNSPPAKRHQSRSVSPQDRRYEKERSYSRSPPHNGSRVRSGSPGRVKSHSRSPRRSVSPRKNRSYTPEQARSQSPVPRQSRSPTPVPRGAQNGDRSPSQ | binds

Further lines, results first:

Row | binding | Molecule
16 | binds | Glutathione peroxidase 1 (ATGPX1) (from UniProt P52032) (enzyme)
17 | binds | Nuclear factor Y, subunit C1 (ATHAP5A) (from UniProt Q9SMP0)
18 | binds | Shaggy-like kinase 31 (SK31) (from UniProt P45432)
19 | binds | HSP70-interacting protein 1 (ATHIP1) (from UniProt Q93YR3)
20 | binds | CASC3/Barentsz eIF4AIII binding (BTZ2)
21 | binds | ATP synthase D chain, mitochondrial (ATPQ) (from UniProt Q9FT52)
22 | binds | A specific subunit of SYD-associated SWI/SNF (SAS) complexes (from UniProt Q9SD86)
23 | binds | ABA responsive trichome formation regulator (SVBL) (from UniProt Q9ZPZ4)
24 | binds | SGS domain-containing protein
25 | binds | Ribosomal protein L11 family protein (UL11Z) (from UniProt P50883 1-166)
26 | binds | Scaffold protein in the CCR4-NOT complex (NOT1)
27 | binds | Capping protein A (ATCPA) (from UniProt O82631)
28 | binds | AMMECR1 family (protein, UniProt Q9ZVJ2 1-214) MVSANREMAVYCFDTLVSHYNNEETPPPAFEEANHPLFVTWKKIVNGGEPRLRGCIGTLEARRLISGFKDYALTSALRDRRFPPIQAKELPSLQCTVSVLTDYEDAEDYLDWEVGKHGIIIEFTEPETNTKRSATYLPEVPAHEGWTKIEAIDSLVRKAGYNGVITEAVRRRINLTRYQSTLFSMHYSEYLSYVKATRGVVGPVINGINKHAFA
29 | binds | PCF11P-similar protein 4 (PCFS4) (protein, UniProt Q0WPF2 1-808) MDSEKILNPRLVSINSTSRKGMSVELPQKPPPPPSLLDRFKALLNQREDEFGGGEEVLPPSMDEIVQLYEVVLGELTFNSKPIITDLTIIAGEQREHGEGIANAICTRILEAPVEQKLPSLYLLDSIVKNIGRDYGRYFSSRLPEVFCLAYRQAHPSLHPSMRHLFGTWSSVFPPPVLRKIDMQLQLSSAANQSSVGASEPSQPTRGIHVNPKYLRRLEPSAAENNLRGINSSARVYGQNSLGGYNDFEDQLESPSSLSSTPDGFTRRSNDGANPSNQAFNYGMGRATSRDDEHMEWRRKENLGQGNDHERPRALIDAYGVDTSKHVTINKPIRDMNGMHSKMVTPWQNTEEEEFDWEDMSPTLDRSRAGEFLRSSVPALGSVRARPRVGNTSDFHLDSDIKNGVSHQLRENWSLSQNYPHTSNRVDTRAGKDLKVLASSVGLVSSNSEFGAPPFDSIQDVNSRFGRALPDGTWPHLSARGPNSLPVPSAHLHHLANPGNAMSNRLQGKPLYRPENQVSQSHLNDMTQQNQMLVNYLPSSSAMAPRPMQSLLTHVSHGYPPHGSTIRPSLSIQGGEAMHPLSSGVLSQIGASNQPPGGAFSGLIGSLMAQGLISLNNQPAGQGPLGLEFDADMLKIRNESAISALYGDLPRQCTTCGLRFKCQEEHSKHMDWHVTKNRMSKNHKQNPSRKWFVSASMWLSGAEALGAEAVPGFLPTEPTTEKKDDEDMAVPADEDQTSCALCGEPFEDFYSDETEEWMYKGAVYMNAPEESTTDMDKSQLGPIVHAKCRPESNGGDMEEGSQRKKMRS
30 | binds | MAPK/ERK kinase kinase 1 (MEKK1) (enzyme, UniProt Q39008 1-608) MDRILARMKKSTGRRGGDKNITPVRRLERRDAARNINYDAASCSSSSAEDLSVSTSSLMTRSLEFPEPTSFRIGGGVGEMDRIYRSLGVSGPDDLAISFDAWEACKKRSSSDVVNRFKSFDLDKVRDQDLSEEGPSGVVVGSDSMNHKVQGQDLSEAGPSGGIVTELSEIGNLITPVDRLVADGVVENRRVMERTPTIVKSKGYLVPNNVVAVGVGVGGGIKGLRPPVLKPPPAMKRPPIDHRGSSWDFLTHFAPSETVKRPSSSSSSSEDGCDEEEGKEEEAEAEEMGARFIQLGDTADETCSFTTNEGDSSSTVSNTSPIYPDGGAIITSWQKGQLLGRGSFGSVYEGISGDGDFFAVKEVSLLDQGSQAQECIQQLEGEIKLLSQLQHQNIVRYRGTAKDGSNLYIFLELVTQGSLLKLYQRYQLRDSVVSLYTRQILDGLKYLHDKGFIHRDIKCANILVDANGAVKLADFGLAKVSKFNDIKSCKGTPFWMAPEVINRKDSDGYGSPADIWSLGCTVLEMCTGQIPYSDLEPVQALFRIGRGTLPEVPDTLSLDARLFILKCLKVNPEERPTAAELLNHPFVRRPLPSVGSGGSGSASPLLRR

These are yes or no findings as the source states them, for the method shown. In cells and extracts the contact can be indirect. A yes stands for co-enrichment or nearness to the bait. Other partners may have been found. Tags and fused reporters may be left off the sequences shown.
